Results published in PubChem BioAssay AID1508600 (Functional Genomics Laboratory (NCATS/FGL), 2020).
The whole screen tested about 53,000 sequences, of which about 3,700 (7%) were called active.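 The calls were made as follows: active = gene knockdowns whose robust z-score for IL-1 alpha signal is at least 2 or at most -2, so actives lie on both sides; inactive = the rest.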 Some of the results follow.

experiment: Components of the Cytosolic LPS Sensing Pathway: Gene Identification via Genome-wide siRNA Screen; conditions: RAW264.7 macrophages, IL-1a HTRF, actives lie on both sides, screened at 100 nM (by protocol), cells primed 5 h with Pam3CSK4 first
Description: Non-canonical inflammasome activation by cytosolic LPS is a critical component of the host response to Gram-negative bacterial infection, however we lack a comprehensive understanding of the cellular processes that control this pathway. Here we describe a genome-wide siRNA screen to identify genes regulating the mouse macrophage IL-1 alpha response to cytosolic LPS.
RAW264.7 cells were maintained in complete DMEM media, comprising DMEM with 4.5 g/L glucose, 10% FBS (Gemini Bio-Products, West Sacramento, CA), 2 mM Glutamine (Lonza) and 20 mM HEPES (Lonza), hereafter complete DMEM.
The RNAi screen was conducted in 384-well format using the Ambion Silencer Mouse Genome siRNA Library (#4391425), which consists of three unique, nonoverlapping, nonpooled siRNAs for each of 17,000 gene targets. siRNA reagents ([…]) were stamped into 384-well white flat-bottom microplates (Corning, 3570) using a Velocity11 VPrep liquid handling system (Agilent) integrated into a BioCel robotic platform (Agilent) in columns 1-22, leaving columns 23-24 empty for negative (Ambion, Negative control #1) and positive (mouse Casp4) controls, respectively. The median value of each plate's negative control column was used to normalize sample wells, and the positive control was used to assess transfection efficiency and assay performance.
Lipofectamine RNAiMAX Transfection Reagent ([…]; Invitrogen) was added in […] serum-free, antibiotic-free media to plate wells using a Thermo Scientific Matrix WellMate and Microplate Stacker. Plates were incubated for 45 min at room temperature to allow for the sufficient formation of siRNA-lipid complexes. Cells were seeded at a density of 1x10^4 cells per well in 20 microL media containing 20% (vol/vol) FBS without antibiotics. The final concentration of siRNA in each well was 100 nM. Cells were cultured for 48h at 37 degrees C in 5% CO2 before addition of […] of TLR ligand Pam3CSK4 for 5 hours. The medium was then removed, replaced with […] growth media and cell were transfected with […] of LipidA and TransIT-TKO (Mirus) for 24 hour. At the end of the LipidA treatment, […] of supernatant was transferred to a 384 Greiner Bio-one non-binding low volume plate and […] of IL-1a HTRF reagent (Cisbio, 62MIL1APEH) was added and incubated at room temperature overnight. The plates were read on an EnVision plate reader (PerkinElmer). Cell viability was measured by adding 20ul Cell Titer Glo to the original plate and running a luminescence read on the EnVision. The quantified IL-1a signal for each siRNA gene-targeted well was divided by the median of the negative control wells and multiplied by 100 to achieve a negative control normalized value for each well/siRNA. This normalized value was then used to generate a robust z-score by first taking the log of each value and then by subtracting the median and dividing by the […].

Sequence	z-score
GGCUGAAAAUGCAUGUAUGTT against Ptger1	inactive: -0.14
GGUGAACUGGAGUCAUUUATT against Cebpz	inactive: 0.321
GGUAUAAAGAACUCUGUCATT against Cep78	active: -2.49
GCUAACAGUUCAUAGAAAATT against Nxn	inactive: 0.76
GGCCAAGUUCGGCAUCUUUTT against Fuca2	inactive: -0.738
GGCAGAUUUGGCAAGACAATT against Nelfb	inactive: 0.489
GGAGGUUUUUAAAUGUGUUTT against Sbk1	inactive: 0.261
GCAUUGGGUAUAAAGUAAGTT against Mgat4e	inactive: 1.86
CCUGUAUACGCAGAACACUTT against Gpc1	inactive: 0.929
GCCACAAGUUAAUGCUCUUTT against Rfx5	inactive: -0.898
GGGUCUGCAUAGGUUGUUATT against Epm2a	inactive: 1.04
CGGCUAGAUGAUCCUACCUTT against Tsga13	inactive: -0.542
GCAAUGUGUCAGGCACACATT against Pax2	inactive: -0.16
GGACCACAGCUGGAUAUAUTT against Sik2	inactive: 0.277
GGCAGAAGAAGAAGUUAUATT against Gja10	inactive: 1.1
GCUGAUGUGAAUGGCUCACTT against Gmeb2	inactive: -1.02
GUCCUUCUUCUUUGGGUUGTT against Olfr1356	inactive: 1.22
GCAAAUGGAUGGUUCUUGGTT against Tril	inactive: 0.0347
CCCUGGCCAAACAUAGUGGTT against Efcab12	inactive: 0.278
GGAAGUUGGAAAAACAUUGTT against Zfp947	inactive: 1.02
GGCUUCAAGACUUGUGUGATT against Rdh1	inactive: -1.07
GGCUAAAGAAUAAAGAUCCTT against Cadm2	inactive: 1.66
GGAAGACCAAUAGUACUGCTT against Il1rn	inactive: -0.0282
GGCUUUGAGAGUGGUGUAUTT against Sgsh	inactive: -1.53
CCUCACCGAGUGGUUUAGCTT against Nlrx1	inactive: -0.161
GGAGGAGUUCCAGAUCCACTT against Pald1	inactive: -0.356
GGACAUCAUUGAUGGAUUUTT against Auts2	inactive: 1.13

Sequence	z-score
GGUUCAAGGCAUUUUCUACTT against Olfr715	inactive: 1.22
GGAAUUGAGGUGAUGGAUATT against Sfxn4	inactive: -0.144
CUUAAAGUGAGAUGGUUUCTT against H2bc21	inactive: 0.43
GGACUGAAGUCCUUGACACTT against Lgi3	inactive: -1.46
GCACUUCGAUGAGUUGUGCTT against Def6	inactive: 0.719
CCACGUGUCUUAGAAUUAATT against Gas1	inactive: 1.67
GGCCAUUGCCAUUGUGUGUTT against Stambpl1	inactive: 1.14
CGUGUCCUGACCUUUCAACTT against Il22ra1	inactive: 0.905
CCUCACAGGCCUACGACAATT against Csrp2	inactive: -0.284
CCGUUGACAGAACAGUCCUTT against Vegfa	inactive: -0.376
GGAGUGACUCCAAAUUUACTT against Brcc3	inactive: -0.113
GCAAUAGACAUUCAUCAGATT against Serpinb9c	inactive: -0.364
CCUUACCAAUGUUCAUUUATT against Skint7	inactive: -0.32
GGUAAUGUCUUUGUACUAATT against Steap4	inactive: -0.0471
GGUGAUCGUGGUGUGGAACTT against Extl2	inactive: 0.941
CCAUUCCUUUAGAUUCGUUTT against Med26	inactive: -0.564
GGUCUUAAAAGAGAAGCCATT against Lonp2	inactive: -1.15
GGCCUAAAGGCUUUGAUGATT against Nars	inactive: -1.01
GGACAGACCACACUUCAUGTT against Foxp3	inactive: -0.494
GCGCUUCCAAUAACAAAAATT against 1700123L14Rik	active: -2.19
GGAGAUAUAAAGAAGCAUUTT against Fam214a	inactive: 0.95
GGGCAAACCUUCUAAACUATT against Ttpa	inactive: 0.505
GGUGGUUACAACCGAAGCATT against Fus	inactive: -0.994
GGAGAAGUUGAUAGCUAAATT against Pax6	inactive: 0.941
GGAAGCUCACUAGUAACUUTT against Itgb5	inactive: -0.859
GGAUAAGGCUUUAUGAGAGTT against Cryga	inactive: -0.0719
GGCAACGAUUGUGACUUAUTT against Odr4	inactive: -0.312

Exported field by field: part of the list above.
GCACUUCGAUGAGUUGUGCTT against Def6
  z-score: inactive: 0.719
CCACGUGUCUUAGAAUUAATT against Gas1
  z-score: inactive: 1.67
